Experimental data published in article doi:10.1101/2024.05.22.594599.

T1: Hakai (human (endogenous in SU.86.86 and PANC-1)) (UniProt Q75N03)
T1 sequence: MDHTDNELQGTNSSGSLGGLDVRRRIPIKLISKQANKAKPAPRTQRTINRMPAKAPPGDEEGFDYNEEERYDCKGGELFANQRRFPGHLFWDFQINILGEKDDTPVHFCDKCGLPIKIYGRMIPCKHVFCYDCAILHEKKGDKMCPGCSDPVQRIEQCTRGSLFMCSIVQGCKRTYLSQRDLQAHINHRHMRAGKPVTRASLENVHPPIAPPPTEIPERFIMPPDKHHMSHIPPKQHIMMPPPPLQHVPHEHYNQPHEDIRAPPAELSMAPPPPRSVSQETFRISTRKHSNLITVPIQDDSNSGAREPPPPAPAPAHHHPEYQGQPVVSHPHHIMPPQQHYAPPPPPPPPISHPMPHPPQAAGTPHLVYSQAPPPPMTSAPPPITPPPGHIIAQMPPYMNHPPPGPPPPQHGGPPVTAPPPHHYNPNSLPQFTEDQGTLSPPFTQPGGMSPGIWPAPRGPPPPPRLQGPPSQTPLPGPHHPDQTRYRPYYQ


Columns and labels:
[1] = biological target: T1, Hakai (human (endogenous in SU.86.86 and PANC-1)); test: co-IP
[2] = biological target: E-cadherin (human (endogenous in SU.86.86 and PANC-1)); test: co-IP

binding [1] | binding [2] | Molecule
binds |  | E-cadherin
 | binds | Hakai (protein, UniProt Q75N03 1-491) MDHTDNELQGTNSSGSLGGLDVRRRIPIKLISKQANKAKPAPRTQRTINRMPAKAPPGDEEGFDYNEEERYDCKGGELFANQRRFPGHLFWDFQINILGEKDDTPVHFCDKCGLPIKIYGRMIPCKHVFCYDCAILHEKKGDKMCPGCSDPVQRIEQCTRGSLFMCSIVQGCKRTYLSQRDLQAHINHRHMRAGKPVTRASLENVHPPIAPPPTEIPERFIMPPDKHHMSHIPPKQHIMMPPPPLQHVPHEHYNQPHEDIRAPPAELSMAPPPPRSVSQETFRISTRKHSNLITVPIQDDSNSGAREPPPPAPAPAHHHPEYQGQPVVSHPHHIMPPQQHYAPPPPPPPPISHPMPHPPQAAGTPHLVYSQAPPPPMTSAPPPITPPPGHIIAQMPPYMNHPPPGPPPPQHGGPPVTAPPPHHYNPNSLPQFTEDQGTLSPPFTQPGGMSPGIWPAPRGPPPPPRLQGPPSQTPLPGPHHPDQTRYRPYYQ

Results are given in words; binding and its absence hold for the method and conditions named. Binding seen in cells or lysates may run through a third protein. Binding can be weak; no strength is given.
